Paper PMC10561026
These are yes or no findings as the source states them, for the method shown. Some binding calls cover weakened binding; strength is not graded here.

The chains behind the UniProt entries cited, without tags or fusion partners. Where a name states a change or a piece, a line headed by the entry shows the natural chain unless it says otherwise.
UniProt P0A9X4: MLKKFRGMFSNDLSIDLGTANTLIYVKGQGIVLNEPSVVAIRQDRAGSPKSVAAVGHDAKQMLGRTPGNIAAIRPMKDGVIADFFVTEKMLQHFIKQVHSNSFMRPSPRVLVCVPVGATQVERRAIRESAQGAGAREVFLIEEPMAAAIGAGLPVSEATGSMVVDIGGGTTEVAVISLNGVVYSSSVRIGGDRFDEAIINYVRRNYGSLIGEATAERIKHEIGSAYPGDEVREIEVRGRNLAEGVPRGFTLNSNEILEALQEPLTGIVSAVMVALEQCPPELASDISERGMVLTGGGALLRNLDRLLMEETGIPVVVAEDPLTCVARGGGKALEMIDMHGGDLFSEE
UniProt P02916: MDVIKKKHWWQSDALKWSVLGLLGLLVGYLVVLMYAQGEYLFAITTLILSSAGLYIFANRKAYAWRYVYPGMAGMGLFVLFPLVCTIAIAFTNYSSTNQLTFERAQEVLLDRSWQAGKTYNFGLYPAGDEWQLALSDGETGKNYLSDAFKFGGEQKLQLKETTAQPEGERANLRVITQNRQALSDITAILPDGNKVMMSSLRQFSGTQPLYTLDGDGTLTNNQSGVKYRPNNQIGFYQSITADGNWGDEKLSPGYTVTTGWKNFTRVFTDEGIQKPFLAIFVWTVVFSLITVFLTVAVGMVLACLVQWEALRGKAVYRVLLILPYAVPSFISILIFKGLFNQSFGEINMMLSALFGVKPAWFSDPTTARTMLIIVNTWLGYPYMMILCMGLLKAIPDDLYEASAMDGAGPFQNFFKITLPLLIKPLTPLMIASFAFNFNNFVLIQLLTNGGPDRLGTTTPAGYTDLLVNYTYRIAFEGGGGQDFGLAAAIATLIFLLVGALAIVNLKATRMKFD

Tests used:
Assay in all cases: two-hybrid; bacterial two-hybrid (BACTH): proteins fused to the T18 or T25 fragment of adenylate cyclase in DHM1 cells, streaked on a plate with X-gal, 37°C overnight; Miller units, average of two independent experiments
MreB (E. coli) = MreB (E. coli) (UniProt P0A9X4)
MreC (E. coli) = target: T1, MreC (E. coli) (UniProt P16926)
T1 sequence: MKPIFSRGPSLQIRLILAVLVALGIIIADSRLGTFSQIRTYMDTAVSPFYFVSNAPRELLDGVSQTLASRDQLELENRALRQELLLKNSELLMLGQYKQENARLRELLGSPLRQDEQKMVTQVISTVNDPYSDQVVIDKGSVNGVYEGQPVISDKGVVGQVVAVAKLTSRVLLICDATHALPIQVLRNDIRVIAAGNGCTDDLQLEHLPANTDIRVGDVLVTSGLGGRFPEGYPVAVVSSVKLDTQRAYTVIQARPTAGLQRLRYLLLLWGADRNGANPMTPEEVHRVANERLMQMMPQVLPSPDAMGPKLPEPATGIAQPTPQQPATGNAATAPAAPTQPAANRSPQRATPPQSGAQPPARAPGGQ

[1] = target: RMR, chimeric protein of RodZ and MalF in which the transmembrane domain of RodZ (RodZ 112-133) is replaced with the first transmembrane domain of MalF (MalF 17-39) (E. coli) (UniProt P27434+P02916)
RodA (E. coli) = target: T2, RodA (E. coli) (UniProt P0ABG7)
T2 sequence: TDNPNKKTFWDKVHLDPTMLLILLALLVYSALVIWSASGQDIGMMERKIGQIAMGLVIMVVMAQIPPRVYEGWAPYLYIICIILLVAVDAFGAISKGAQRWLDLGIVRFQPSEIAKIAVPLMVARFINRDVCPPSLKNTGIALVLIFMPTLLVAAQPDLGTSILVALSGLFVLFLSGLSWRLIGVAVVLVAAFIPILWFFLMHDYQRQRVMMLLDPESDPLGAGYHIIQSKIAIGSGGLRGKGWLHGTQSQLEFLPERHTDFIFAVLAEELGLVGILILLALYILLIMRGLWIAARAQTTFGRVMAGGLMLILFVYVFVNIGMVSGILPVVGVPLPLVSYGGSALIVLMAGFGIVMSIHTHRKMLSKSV

[2] = target: T3, penicillin-binding protein (PBP) 2 (E. coli) (UniProt P0AD65)
T3 sequence: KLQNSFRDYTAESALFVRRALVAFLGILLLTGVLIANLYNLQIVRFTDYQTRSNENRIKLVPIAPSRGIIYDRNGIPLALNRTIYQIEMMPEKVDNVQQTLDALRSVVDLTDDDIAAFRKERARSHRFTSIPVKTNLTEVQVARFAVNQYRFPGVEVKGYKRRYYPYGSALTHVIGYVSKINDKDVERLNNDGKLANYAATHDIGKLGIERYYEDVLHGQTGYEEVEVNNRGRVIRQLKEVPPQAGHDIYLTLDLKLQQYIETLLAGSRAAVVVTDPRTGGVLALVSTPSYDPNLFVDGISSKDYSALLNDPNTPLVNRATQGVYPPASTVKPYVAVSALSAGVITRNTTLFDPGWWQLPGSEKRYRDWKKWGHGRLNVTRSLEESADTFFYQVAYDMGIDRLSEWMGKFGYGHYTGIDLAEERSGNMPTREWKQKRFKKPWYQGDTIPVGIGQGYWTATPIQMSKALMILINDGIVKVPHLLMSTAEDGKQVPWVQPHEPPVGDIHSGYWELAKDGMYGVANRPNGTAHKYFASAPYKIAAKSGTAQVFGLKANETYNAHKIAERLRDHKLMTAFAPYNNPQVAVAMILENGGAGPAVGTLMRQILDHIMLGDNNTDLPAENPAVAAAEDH

RodZ (E. coli) = RodZ (E. coli) (UniProt P27434)

## RMR, chimeric protein of RodZ and MalF in which the transmembrane domain of RodZ (RodZ 112-133) is replaced with the first transmembrane domain of MalF (MalF 17-39) (from UniProt P27434 2-111; P02916 17-39; P27434 134-337)
MreB (E. coli)
  binding: binds
MreC (E. coli)
  binding: binds
[1]
  binding: binds
RodA (E. coli)
  binding: binds
[2]
  binding: no binding

## RodZ (from UniProt P27434 1-337)
MreB (E. coli)
  binding: binds
MreC (E. coli)
  binding: binds
RodA (E. coli)
  binding: binds
RodZ (E. coli)
  binding: binds
[2]
  binding: no binding
